Measured values from PubChem BioAssay AID2685 (National Center for Advancing Translational Sciences (NCATS), 2010).
About 2,100 (0.66%) of roughly 320,000 compounds were called active. Inconclusive results, whose numbers are uncertain, are shown with a selection of clear calls. Calls come from the whole dose curve; as a rule, active = well fitted inhibition curve with a large enough effect in the signal ratio, with a control signal flat (not every such curve was filed as active); inconclusive = small, poorly fitted or top-dose-only effect, or effect the other way, or a change in a side signal; inactive = flat fitted curve, though single readings scatter; the % refers to the signal ratio. A potency beside an inconclusive call is a rough fit, not a confirmed value.

Assay: qHTS Assay for Lipid Storage Modulators in Drosophila S3 Cells
Details: BODIPY lipid droplet fluorescence, 18-24 h, cells fed with added oleic acid; lipid storage change, negative = inhibition: at 46.1 µM (top of the series) unless noted
Outline: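 Drosophila S3 cells got compounds at several concentrations plus oleic acid (400 uM solution). Laser-scanning cytometry with 488 nm excitation read lipid droplets at 500-530 nm and cells at 575-640 nm. Percent activity was relative to 20 uM Triacsin C.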
% is set by controls: 0 for no effect and ±100 for the full control effect; potency is the fitted concentration of half-maximal effect.

Lipid storage change, negative = inhibition, inconclusive:
Cc1ccc(C(=O)N2CCSCC2)cc1 -0.14%
Cn1c(C(=O)N2CCOCC2)cc2c(=O)n3ccccc3nc21 47.2%
COc1ccc(N=C2C(=O)Nc3c(C)cccc32)cc1 23.3%
COC(=O)c1c(-c2ccccc2)csc1N1C(=O)Nc2ccccc2N1O -8.19%
CC(=O)c1ccc2c(c1)CC(C)C(=O)N2C (configuration not stated) -3.77%
COc1ccc(NC(=O)Cc2coc3cc(C)ccc23)cn1 -3.62%
CCCCOc1ccc(N=Nc2ccc(N)nc2N)cn1 12.1%
Cc1ccc(NC(=O)CN2CCCC2)cc1 -0.363%
COC(=O)c1ccc(NS(=O)(=O)c2ccccc2)o1 -11.2%
Cc1cccc(OCc2nnc(SCC(=O)c3c(N)n(C4CC4)c(=O)[nH]c3=O)o2)c1
O=C(CSc1nc2nc(-c3cccs3)cc(C(F)(F)F)c2c(=O)[nH]1)C(F)(F)F -14.3%
Cc1c(NC(=O)COC(=O)c2ccc(F)c(S(=O)(=O)N3CCOCC3)c2)c(=O)n(-c2ccccc2)n1C 3.4%
CCCCn1c(N)c(N(CCC(C)C)C(=O)c2ccc3c(c2)OCO3)c(=O)[nH]c1=O 3.5%
C=CCn1c(C)cc(-c2csc(NCC)n2)c1C -26.8%
COCC(=O)Nc1c(C(=O)N2CCCC2)oc2ccccc12 49%
O=C(O)c1cccc(CSc2n[nH]c(-c3ccc(Cl)cc3Cl)n2)c1 17.8%
Cc1c(Cl)cccc1NC(=S)NCCCN(C)C -13%
CC(C)[C@H](NC(=O)c1ccco1)C(=O)OCC(=O)NC12CC3CC(CC(C3)C1)C2 0.609%
CCC(C)Sc1nc2c(c(=O)[nH]c(=O)n2C)n1C (configuration not stated) 30.6%
COc1ccccc1CN1CC(C(=O)N(C)Cc2nc(C)cs2)CCC1=O (configuration not stated) -5.09%
COc1ccc(S(=O)(=O)N/N=C(/C)c2ccncc2)c(OC)c1 -85.8%
N#Cc1ccccc1OCC(=O)NCC1(N2CCCCC2)CCCCC1 7.23%
CS(=O)(=O)c1ccc(Cl)c(NC(=O)CCCSc2ccccc2)c1 1.54%

Lipid storage change, negative = inhibition, inactive:
Cc1cc(C(=O)CN2C(=O)C(=O)N(Cc3ccccc3)C2=O)c(C)n1Cc1ccc(F)cc1
Cc1ccc(Cc2cnc(NC(=O)c3cccs3)s2)cc1
O=C1c2cccc3cccc(c23)C(=O)N1CC1CCN(S(=O)(=O)c2ccc(F)cc2)CC1
N#Cc1ccc(/C=N/NC(=O)c2cc(-c3cccs3)nc3ccccc23)cc1

Potency, inconclusive:
CCN1CCN(CCNC(=O)CSCc2nc(-c3ccc(OC)c(OC)c3)oc2C)CC1 0.164 µM [activator, full curve, poor fit]
CSc1ccc(CCNS(=O)(=O)c2ccc3c(c2)C(C)(C)C(=O)N3C)cc1 5.8 µM [activator, full curve]
COc1cccc(C(=O)NC(C)CCc2ccccc2)c1 (configuration not stated) 29.1 µM [falling, single point]
CCCCC(=O)Nc1nnc(S(=O)(=O)N(C)Cc2ccco2)s1 32.6 µM [activator, single point]
Cc1cc(/C=N/NC(=O)c2cccc(F)c2)c(C)n1-c1ccccc1 29.1 µM [rising, single point]
CCOC(=O)N1CCN(Cc2nc3cc([N+](=O)[O-])ccc3n2C)CC1 29.1 µM [falling, single point]
CCCCN(C(=O)c1ccc(S(=O)(=O)N(C)C)cc1)c1nc2ccccc2s1 1.84 µM [activator, full curve, poor fit]
O=C(O)CC1c2ccccc2C=Cc2ccccc21 11.6 µM [activator, partial curve]
CCS(=O)(=O)N1Cc2ccccc2CC1C(=O)N(C)Cc1ccc(OC)cc1OC (configuration not stated) 0.651 µM [falling, partial curve]
COc1cccc(-c2nc(N3CCC(C)CC3)c3ccccc3n2)c1O 2.31 µM [falling, full curve, poor fit]
Cc1cc(OCCn2nc(C(=O)O)c3ccccc3c2=O)ccc1C(C)C 29.1 µM [falling, single point]
O=C(COC(=O)c1ccco1)NCc1ccc(F)cc1 0.206 µM [falling, full curve]
COc1ccc([C@H]2CC(=O)C=C(c3cccc(C(C)C)c3)C2)cc1OC 9.2 µM [falling, single point]
C[C@H](NC(=O)c1nc[nH]c1C(=O)NC1CCNCC1)C(=O)OC(C)(C)C 29.1 µM [activator, single point]
O=C(c1ccco1)N1CCN(C(=O)c2cnn3c2NC(c2cccs2)CC3C(F)(F)F)CC1 (configuration not stated) 23.1 µM [activator, partial curve]
CC(C)N(Cc1nccn1C)C(=O)c1ccc2oc(Cc3ccccc3)nc2c1 0.082 µM [falling, full curve, poor fit]
Cc1ccccc1S(=O)(=O)Cc1ccc(C(=O)NC(C)c2ccc3c(c2)OCCO3)o1 (configuration not stated) 16.4 µM [activator, partial curve]
Cc1nn(C)c(C(=O)N/N=C/c2ccc(Br)cc2)c1Cl 5.17 µM [falling, partial curve, poor fit]
CCOc1ccc(NC(=O)C(C)NC(=O)c2ccccc2Cl)cc1S(=O)(=O)N1CCCC1 (configuration not stated) 18.4 µM [activator, partial curve]
O=c1[nH]c(C2CCCN(S(=O)(=O)c3ccccc3)C2)nc2c1nnn2Cc1ccccc1 (configuration not stated) 2.31 µM [activator, partial curve]

Three compounds picked at random from the list so far, as already listed:
Potency, inconclusive:
O=C(COC(=O)c1ccco1)NCc1ccc(F)cc1 0.206 µM [falling, full curve]
O=c1[nH]c(C2CCCN(S(=O)(=O)c3ccccc3)C2)nc2c1nnn2Cc1ccccc1 (configuration not stated) 2.31 µM [activator, partial curve]
CCOc1ccc(NC(=O)C(C)NC(=O)c2ccccc2Cl)cc1S(=O)(=O)N1CCCC1 (configuration not stated) 18.4 µM [activator, partial curve]
